Source: article PMC11126133
Like-named read-outs stand apart in the source and are kept apart here. Results are given in words; binding and its absence hold for the method and conditions named. Binding seen in cells or lysates may run through a third protein. Some entries that bind do so weakly or less than the wild type. For some assays here: Where a sequence is shown, tags or fusion partners need not be part of it.

Amino acid sequences for entries named in this document (tags omitted).
UniProt P03430: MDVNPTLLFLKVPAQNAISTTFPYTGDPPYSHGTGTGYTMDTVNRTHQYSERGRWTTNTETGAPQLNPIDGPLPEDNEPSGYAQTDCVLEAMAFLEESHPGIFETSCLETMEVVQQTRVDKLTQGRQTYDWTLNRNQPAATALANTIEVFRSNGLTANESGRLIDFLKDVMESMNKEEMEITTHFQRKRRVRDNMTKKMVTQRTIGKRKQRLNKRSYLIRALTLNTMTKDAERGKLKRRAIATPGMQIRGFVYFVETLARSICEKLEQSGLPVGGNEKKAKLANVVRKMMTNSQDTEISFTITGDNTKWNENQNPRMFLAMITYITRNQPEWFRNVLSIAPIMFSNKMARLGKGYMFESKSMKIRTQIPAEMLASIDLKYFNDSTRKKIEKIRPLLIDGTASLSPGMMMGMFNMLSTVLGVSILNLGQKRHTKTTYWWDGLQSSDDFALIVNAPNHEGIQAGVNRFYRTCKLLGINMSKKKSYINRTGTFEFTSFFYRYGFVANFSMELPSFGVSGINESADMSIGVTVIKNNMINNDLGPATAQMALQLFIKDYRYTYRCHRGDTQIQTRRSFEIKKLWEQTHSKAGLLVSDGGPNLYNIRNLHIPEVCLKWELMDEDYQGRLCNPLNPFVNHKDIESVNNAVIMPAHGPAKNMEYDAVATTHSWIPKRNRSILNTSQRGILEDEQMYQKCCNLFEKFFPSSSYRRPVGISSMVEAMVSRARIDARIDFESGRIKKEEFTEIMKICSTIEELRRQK
UniProt Q96CV9: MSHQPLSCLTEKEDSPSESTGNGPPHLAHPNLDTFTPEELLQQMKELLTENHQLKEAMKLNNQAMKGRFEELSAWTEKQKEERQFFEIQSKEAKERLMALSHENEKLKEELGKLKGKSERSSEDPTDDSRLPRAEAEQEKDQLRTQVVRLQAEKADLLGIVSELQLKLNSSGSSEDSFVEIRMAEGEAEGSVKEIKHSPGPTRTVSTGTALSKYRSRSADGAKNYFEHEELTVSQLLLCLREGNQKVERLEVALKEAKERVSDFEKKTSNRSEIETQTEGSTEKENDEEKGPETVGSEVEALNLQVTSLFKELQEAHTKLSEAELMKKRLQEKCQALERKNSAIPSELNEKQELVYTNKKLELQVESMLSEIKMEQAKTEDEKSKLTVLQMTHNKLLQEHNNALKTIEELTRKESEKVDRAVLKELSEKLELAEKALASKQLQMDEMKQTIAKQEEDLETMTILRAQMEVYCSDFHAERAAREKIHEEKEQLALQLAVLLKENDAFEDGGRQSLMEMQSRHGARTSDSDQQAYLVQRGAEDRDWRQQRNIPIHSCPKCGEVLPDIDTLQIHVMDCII

Legend:
[1] = target: T1, HACD3-Myc (human (cDNA from A549 cells)) (UniProt Q9P035); assay: co-IP; HEK293T co-transfected with HACD3-Myc and individual V5-tagged autophagy receptors for 48 h; lysates incubated with mouse anti-Myc mAb and protein G-agarose, 4 °C, 6 h; four washes with 1% NP-40, 50 mmol/L Tris-HCl, 50 mmol/L EDTA, 150 mmol/L NaCl, pH 7.4; blot with anti-V5 and anti-Myc pAb
T1 sequence: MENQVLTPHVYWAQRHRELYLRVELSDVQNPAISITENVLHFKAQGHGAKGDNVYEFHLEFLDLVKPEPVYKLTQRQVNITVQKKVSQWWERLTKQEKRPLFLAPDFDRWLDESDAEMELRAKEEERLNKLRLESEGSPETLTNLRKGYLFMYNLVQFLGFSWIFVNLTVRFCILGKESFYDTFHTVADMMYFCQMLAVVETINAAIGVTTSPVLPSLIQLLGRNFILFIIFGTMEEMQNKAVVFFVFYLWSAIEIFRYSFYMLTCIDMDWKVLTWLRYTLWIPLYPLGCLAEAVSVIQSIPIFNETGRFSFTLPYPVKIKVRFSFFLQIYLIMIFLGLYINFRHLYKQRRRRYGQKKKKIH

[2] = target: WSN (H1N1) PB1 (polymerase basic protein 1 of influenza A virus A/WSN/33) (influenza A virus A/WSN/33 (H1N1)) (UniProt P03430); assay: co-IP
[3] = target: WSN (H1N1) PB1 (polymerase basic protein 1 of influenza A virus A/WSN/33) (influenza A virus A/WSN/33 (H1N1)) (UniProt P03430); assay: co-IP; remark: listed apart in the source
[4] = target: T1, HACD3-Myc (human (cDNA from A549 cells)); assay: co-IP; HEK293T co-transfected with HACD3-Myc and individual V5-tagged autophagy receptors for 48 h; lysates incubated with mouse anti-Myc mAb and protein G-agarose, 4 °C, 6 h; four washes with 1% NP-40, 50 mmol/L Tris-HCl, 50 mmol/L EDTA, 150 mmol/L NaCl, pH 7.4; blot with anti-V5 and anti-Myc pAb; remark: listed apart in the source

**Q.** For “V5-tagged OPTN (from UniProt Q96CV9 1-577)”, which binding [1] is on record?
**A.** no binding

**Q.** Which binding [2] does the source give for “V5-tagged SQSTM1/p62 (from UniProt Q13501 1-440)” here?
**A.** binds

**Q.** What about the binding [1] of the same molecule?
**A.** binds

B1: V5-tagged HACD3 (Hydroxyacyl-CoA Dehydratase 3) (protein, UniProt Q9P035 1-362)
chain: T1 sequence
**Q.** B1 was tested. Which binding [3] did it give?
**A.** binds

B2: V5-tagged NDP52 (protein, UniProt Q13137 1-446)
chain: MEETIKDPPTSAVLLDHCHFSQVIFNSVEKFYIPGGDVTCHYTFTQHFIPRRKDWIGIFRVGWKTTREYYTFMWVTLPIDLNNKSAKQQEVQFKAYYLPKDDEYYQFCYVDEDGVVRGASIPFQFRPENEEDILVVTTQGEVEEIEQHNKELCKENQELKDSCISLQKQNSDMQAELQKKQEELETLQSINKKLELKVKEQKDYWETELLQLKEQNQKMSSENEKMGIRVDQLQAQLSTQEKEMEKLVQGDQDKTEQLEQLKKENDHLFLSLTEQRKDQKKLEQTVEQMKQNETTAMKKQQELMDENFDLSKRLSENEIICNALQRQKERLEGENDLLKRENSRLLSYMGLDFNSLPYQVPTSDEGGARQNPGLAYGNPYSGIQESSSPSPLSIKKCPICKADDICDHTLEQQQMQPLCFNCPICDKIFPATEKQIFEDHVFCHSL
**Q.** How did the binding [4] turn out when B2 was run?
**A.** binds weakly
